These are yes or no findings as the source states them, for the method shown. For part of these data: Binding seen in cells or lysates may run through a third protein. Some results given as binding are weak or reduced against the parent protein; the word gives no strength. Tags and fused reporters may be left off the sequences shown.
Columns and labels:
[1] = molecular target: T1, FLAG-HsGeminin-His6 (wild type) (human) (UniProt O75496); test: co-IP; extract of Sf9 cells expressing one untagged HsMCM subunit mixed with extract of Sf9 cells expressing Myc-HsCdc6, FLAG-HsCdt1 and/or FLAG-HsGeminin-His6; anti-FLAG or anti-Myc agarose beads, 4 °C, 3 h; PBS plus 1% Triton X-100; washed with PBS; Western blot
T1 sequence: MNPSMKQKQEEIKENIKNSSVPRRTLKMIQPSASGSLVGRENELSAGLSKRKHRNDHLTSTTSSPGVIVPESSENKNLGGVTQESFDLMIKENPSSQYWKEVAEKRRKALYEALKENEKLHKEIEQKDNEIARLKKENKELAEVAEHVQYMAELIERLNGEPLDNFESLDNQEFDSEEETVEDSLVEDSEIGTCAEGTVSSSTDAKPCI

Chains of the proteins cited; added tags and fusions are not shown. Lines headed by an entry give the natural chain unless they say otherwise; changes in a name come on top.
UniProt P33991: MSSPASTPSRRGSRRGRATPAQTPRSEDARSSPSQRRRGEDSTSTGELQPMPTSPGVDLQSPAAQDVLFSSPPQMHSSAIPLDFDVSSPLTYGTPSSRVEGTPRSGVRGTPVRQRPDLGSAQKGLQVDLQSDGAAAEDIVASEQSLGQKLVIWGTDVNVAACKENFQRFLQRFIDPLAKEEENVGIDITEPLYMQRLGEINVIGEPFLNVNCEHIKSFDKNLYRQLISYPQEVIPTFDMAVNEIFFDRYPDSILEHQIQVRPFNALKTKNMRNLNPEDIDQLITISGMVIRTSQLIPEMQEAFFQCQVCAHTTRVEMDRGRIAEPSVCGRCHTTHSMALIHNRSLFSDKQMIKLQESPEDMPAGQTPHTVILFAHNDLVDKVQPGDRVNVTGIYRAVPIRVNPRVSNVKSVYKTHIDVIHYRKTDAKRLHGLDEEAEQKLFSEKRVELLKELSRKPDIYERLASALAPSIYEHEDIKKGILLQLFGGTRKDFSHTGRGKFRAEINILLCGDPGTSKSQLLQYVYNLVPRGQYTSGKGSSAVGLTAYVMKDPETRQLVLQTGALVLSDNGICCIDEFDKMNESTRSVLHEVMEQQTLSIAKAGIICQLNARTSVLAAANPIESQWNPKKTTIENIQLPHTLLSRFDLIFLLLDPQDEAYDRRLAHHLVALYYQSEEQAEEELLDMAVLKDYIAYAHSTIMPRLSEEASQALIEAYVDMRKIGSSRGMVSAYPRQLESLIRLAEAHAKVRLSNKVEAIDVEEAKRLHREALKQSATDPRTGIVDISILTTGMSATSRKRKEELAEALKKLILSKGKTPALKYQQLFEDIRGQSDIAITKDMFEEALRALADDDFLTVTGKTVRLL
UniProt P33993: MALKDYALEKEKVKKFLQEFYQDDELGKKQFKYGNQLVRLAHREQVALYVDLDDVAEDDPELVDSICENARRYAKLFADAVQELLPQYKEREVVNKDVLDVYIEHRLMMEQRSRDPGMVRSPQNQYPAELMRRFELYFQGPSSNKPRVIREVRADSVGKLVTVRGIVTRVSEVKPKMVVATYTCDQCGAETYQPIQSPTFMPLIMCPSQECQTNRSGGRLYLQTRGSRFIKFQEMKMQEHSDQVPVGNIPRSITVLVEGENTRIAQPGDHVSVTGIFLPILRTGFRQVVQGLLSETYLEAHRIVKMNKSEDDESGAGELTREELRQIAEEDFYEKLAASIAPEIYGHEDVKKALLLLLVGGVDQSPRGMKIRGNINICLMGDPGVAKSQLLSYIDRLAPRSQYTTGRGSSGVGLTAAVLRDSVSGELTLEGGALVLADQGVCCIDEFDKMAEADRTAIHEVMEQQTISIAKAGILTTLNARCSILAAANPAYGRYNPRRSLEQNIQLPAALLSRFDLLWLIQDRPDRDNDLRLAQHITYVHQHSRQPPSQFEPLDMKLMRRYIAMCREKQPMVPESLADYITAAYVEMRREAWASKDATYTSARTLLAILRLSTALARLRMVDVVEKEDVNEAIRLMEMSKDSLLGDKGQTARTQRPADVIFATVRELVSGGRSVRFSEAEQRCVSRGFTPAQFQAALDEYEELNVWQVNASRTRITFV

[2] = molecular target: HsMCM2–7 complex (human | human (endogenous in 293T)), P49736; test: recruitment to DNA-coupled magnetic beads; lamin B2 DNA fragment beads with HsORC and HsCdc6 for 30 min, then 26 nM HsMCM467 or 13 nM HsMCM2–7 for 30 min, then 60 nM HsGeminin for 30 min; no HsCdt1; Western blot; both purified; details: remark: other sources report otherwise
HsGeminin-BD (human) = molecular target: T2, HsGeminin-BD (human) (UniProt O75496); test: co-IP; 60 ng purified FLAG-HsCdt1 with 40 ng wild-type or mutant HsGeminin; rabbit anti-human Geminin polyclonal antibodies on protein A/G plus agarose; PBS plus 1 mg/ml BSA, 4 °C, 3 h; washed with PBS plus 0.5 M NaCl; Western blot; both purified
T2 sequence: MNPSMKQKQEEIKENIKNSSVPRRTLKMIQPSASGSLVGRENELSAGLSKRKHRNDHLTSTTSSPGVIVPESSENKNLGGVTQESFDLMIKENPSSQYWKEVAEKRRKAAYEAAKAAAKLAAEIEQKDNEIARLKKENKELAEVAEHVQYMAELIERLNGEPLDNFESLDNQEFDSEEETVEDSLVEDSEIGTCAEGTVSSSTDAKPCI

HsMCM467 complex (human) = HsMCM467 complex (human) (UniProt P33991+Q14566+P33993); test: recruitment to DNA-coupled magnetic beads; lamin B2 DNA fragment beads with HsORC and HsCdc6 for 30 min, then 26 nM HsMCM467 or 13 nM HsMCM2–7 for 30 min, then 60 nM HsGeminin for 30 min; no HsCdt1; Western blot; both purified
FLAG-HsCdt1 (human) = molecular target: T3, FLAG-HsCdt1 (human) (UniProt Q9H211); test: recruitment to DNA-coupled magnetic beads; without HsMCM complexes: purified proteins (13 nM; HsGeminin 200 nM unless indicated) with beads carrying pUC19-lamin-B2 plasmid or linear lamin B2 DNA; 0.1 M NaCl, 1 mM ATP, 37 °C, 30 min; bound proteins by Western blot; both purified
T3 sequence: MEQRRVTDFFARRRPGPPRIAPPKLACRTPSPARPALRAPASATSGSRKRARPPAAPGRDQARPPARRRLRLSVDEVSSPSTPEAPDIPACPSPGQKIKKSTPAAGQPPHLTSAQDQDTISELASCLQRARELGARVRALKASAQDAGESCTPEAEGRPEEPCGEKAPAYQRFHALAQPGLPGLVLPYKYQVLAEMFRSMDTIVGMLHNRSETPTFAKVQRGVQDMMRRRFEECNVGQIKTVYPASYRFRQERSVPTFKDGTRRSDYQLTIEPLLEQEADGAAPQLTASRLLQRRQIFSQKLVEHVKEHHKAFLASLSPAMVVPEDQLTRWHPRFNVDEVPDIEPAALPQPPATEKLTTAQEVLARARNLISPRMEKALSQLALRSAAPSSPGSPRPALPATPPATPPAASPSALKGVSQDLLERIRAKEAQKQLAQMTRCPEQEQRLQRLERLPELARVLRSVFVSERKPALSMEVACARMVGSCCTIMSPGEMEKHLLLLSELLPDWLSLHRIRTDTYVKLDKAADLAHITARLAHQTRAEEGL

B1: untagged human Mcm5 (protein, UniProt P33992 1-734)
chain: MSGFDDPGIFYSDSFGGDAQADEGQARKSQLQRRFKEFLRQYRVGTDRTGFTFKYRDELKRHYNLGEYWIEVEMEDLASFDEDLADYLYKQPAEHLQLLEEAAKEVADEVTRPRPSGEEVLQDIQVMLKSDASPSSIRSLKSDMMSHLVKIPGIIIAASAVRAKATRISIQCRSCRNTLTNIAMRPGLEGYALPRKCNTDQAGRPKCPLDPYFIMPDKCKCVDFQTLKLQELPDAVPHGEMPRHMQLYCDRYLCDKVVPGNRVTIMGIYSIKKFGLTTSRGRDRVGVGIRSSYIRVLGIQVDTDGSGRSFAGAVSPQEEEEFRRLAALPNVYEVISKSIAPSIFGGTDMKKAIACLLFGGSRKRLPDGLTRRGDINLLMLGDPGTAKSQLLKFVEKCSPIGVYTSGKGSSAAGLTASVMRDPSSRNFIMEGGAMVLADGGVVCIDEFDKMREDDRVAIHEAMEQQTISIAKAGITTTLNSRCSVLAAANSVFGRWDETKGEDNIDFMPTILSRFDMIFIVKDEHNEERDVMLAKHVITLHVSALTQTQAVEGEIDLAKLKKFIAYCRVKCGPRLSAEAAEKLKNRYIIMRSGARQHERDSDRRSSIPITVRQLEAIVRIAEALSKMKLQPFATEADVEEALRLFQVSTLDAALSGTLSGVEGFTSQEDQEMLSRIEKQLKRRFAIGSQVSEHSIIKDFTKQKYPEHAIHKVLQLMLRRGEIQHRMQRKVLYRLK
Q: For B1, which binding [1] is on record?
A: binds

B2: FLAG-HsGeminin-His6 (wild type), O75496 1-209 (protein)
chain: MNPSMKQKQEEIKENIKNSSVPRRTLKMIQPSASGSLVGRENELSAGLSKRKHRNDHLTSTTSSPGVIVPESSENKNLGGVTQESFDLMIKENPSSQYWKEVAEKRRKALYEALKENEKLHKEIEQKDNEIARLKKENKELAEVAEHVQYMAELIERLNGEPLDNFESLDNQEFDSEEETVEDSLVEDSEIGTCAEGTVSSSTDAKPCI
Q: How did the binding [2] turn out when B2 was run?
A: binds

B3: FLAG-HsCdt1 (protein, UniProt Q9H211 1-546)
chain: MEQRRVTDFFARRRPGPPRIAPPKLACRTPSPARPALRAPASATSGSRKRARPPAAPGRDQARPPARRRLRLSVDEVSSPSTPEAPDIPACPSPGQKIKKSTPAAGQPPHLTSAQDQDTISELASCLQRARELGARVRALKASAQDAGESCTPEAEGRPEEPCGEKAPAYQRFHALAQPGLPGLVLPYKYQVLAEMFRSMDTIVGMLHNRSETPTFAKVQRGVQDMMRRRFEECNVGQIKTVYPASYRFRQERSVPTFKDGTRRSDYQLTIEPLLEQEADGAAPQLTASRLLQRRQIFSQKLVEHVKEHHKAFLASLSPAMVVPEDQLTRWHPRFNVDEVPDIEPAALPQPPATEKLTTAQEVLARARNLISPRMEKALSQLALRSAAPSSPGSPRPALPATPPATPPAASPSALKGVSQDLLERIRAKEAQKQLAQMTRCPEQEQRLQRLERLPELARVLRSVFVSERKPALSMEVACARMVGSCCTIMSPGEMEKHLLLLSELLPDWLSLHRIRTDTYVKLDKAADLAHITARLAHQTRAEEGL
Q: For B3, which binding (HsGeminin-BD (human)) is on record?
A: no binding

B4: FLAG-HsGeminin-His6 (wild type) (protein, UniProt O75496 1-209)
chain: MNPSMKQKQEEIKENIKNSSVPRRTLKMIQPSASGSLVGRENELSAGLSKRKHRNDHLTSTTSSPGVIVPESSENKNLGGVTQESFDLMIKENPSSQYWKEVAEKRRKALYEALKENEKLHKEIEQKDNEIARLKKENKELAEVAEHVQYMAELIERLNGEPLDNFESLDNQEFDSEEETVEDSLVEDSEIGTCAEGTVSSSTDAKPCI
Q: For B4, which binding (HsMCM467 complex (human)) is on record?
A: no binding (tested: 60 nM HsGeminin)

B5: HsGeminin-BD (protein, UniProt O75496 1-209)
chain: MNPSMKQKQEEIKENIKNSSVPRRTLKMIQPSASGSLVGRENELSAGLSKRKHRNDHLTSTTSSPGVIVPESSENKNLGGVTQESFDLMIKENPSSQYWKEVAEKRRKAAYEAAKAAAKLAAEIEQKDNEIARLKKENKELAEVAEHVQYMAELIERLNGEPLDNFESLDNQEFDSEEETVEDSLVEDSEIGTCAEGTVSSSTDAKPCI
Q: For B5, which binding (FLAG-HsCdt1 (human)) is on record?
A: no binding

B6: untagged human Mcm6 (protein, UniProt Q14566 1-821)
chain: MDLAAAAEPGAGSQHLEVRDEVAEKCQKLFLDFLEEFQSSDGEIKYLQLAEELIRPERNTLVVSFVDLEQFNQQLSTTIQEEFYRVYPYLCRALKTFVKDRKEIPLAKDFYVAFQDLPTRHKIRELTSSRIGLLTRISGQVVRTHPVHPELVSGTFLCLDCQTVIRDVEQQFKYTQPNICRNPVCANRRRFLLDTNKSRFVDFQKVRIQETQAELPRGSIPRSLEVILRAEAVESAQAGDKCDFTGTLIVVPDVSKLSTPGARAETNSRVSGVDGYETEGIRGLRALGVRDLSYRLVFLACCVAPTNPRFGGKELRDEEQTAESIKNQMTVKEWEKVFEMSQDKNLYHNLCTSLFPTIHGNDEVKRGVLLMLFGGVPKTTGEGTSLRGDINVCIVGDPSTAKSQFLKHVEEFSPRAVYTSGKASSAAGLTAAVVRDEESHEFVIEAGALMLADNGVCCIDEFDKMDVRDQVAIHEAMEQQTISITKAGVKATLNARTSILAAANPISGHYDRSKSLKQNINLSAPIMSRFDLFFILVDECNEVTDYAIARRIVDLHSRIEESIDRVYSLDDIRRYLLFARQFKPKISKESEDFIVEQYKHLRQRDGSGVTKSSWRITVRQLESMIRLSEAMARMHCCDEVQPKHVKEAFRLLNKSIIRVETPDVNLDQEEEIQMEVDEGAGGINGHADSPAPVNGINGYNEDINQESAPKASLRLGFSEYCRISNLIVLHLRKVEEEEDESALKRSELVNWYLKEIESEIDSEEELINKKRIIEKVIHRLTHYDHVLIELTQAGLKGSTEGSESYEEDPYLVVNPNYLLED
Q: With B6 as the binder, how does the binding [1] read?
A: no binding

From PMC4215257
